{"source": "PubChem BioAssay AID504467", "about": "(National Center for Advancing Translational Sciences (NCATS), 2011)", "note": "Out of some 330,000 compounds screened, about 7,700 (2.3%) were called active. Inconclusive means that the source gave no clear call. Such entries were picked first, then a sample of the others. Calls come from the whole dose curve; as a rule, active = well fitted inhibition curve with a large enough effect; inconclusive = small, poorly fitted or top-dose-only effect, or effect the other way; inactive = flat fitted curve, though single readings scatter. A potency beside an inconclusive call is a rough fit, not a confirmed value. % is set by controls: 0 for no effect and ±100 for the full control effect; potency is the fitted concentration of half-maximal effect."}
{"assay": "qHTS screen for small molecules that inhibit ELG1-dependent DNA repair in human embryonic kidney (HEK293T) cells expressing luciferase-tagged ELG1; note: nearly all actives have a fitted effect of over 55% in size", "conditions": "HEK293T ELG1-luciferase reporter, luminescence, 16 h, DNA damage induced by 5-fluorouridine; activity change, negative = inhibition: at 46.1 µM (top of the series)", "in_short": "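In this reporter screen, reduction of luminescence relative to DMSO vehicle indicated activity. Compounds and 5-fluorouridine were added together to 2,000 cells per well, incubated for 16 hr at 37 °C, then developed with ONE-Glo.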"}
{"smiles": "NC(=O)c1ccccc1NC(=O)c1ccc2c(c1)OCO2", "Potency": "inconclusive: 9.2 µM [activator, partial curve]"}
{"smiles": "O=C(Nc1ccc(F)cc1)c1cnc(-c2ccccc2)nc1-c1ccccc1", "Potency": "inconclusive: 1.03 µM [activator, partial curve]"}
{"smiles": "CC(=O)c1cccc(NS(=O)(=O)c2ccc(-c3cnc(C4CC4)o3)cc2)c1", "Potency": "inconclusive: 1.83 µM [inhibitor, partial curve, poor fit]"}
{"smiles": "CNC(=O)CS(=O)(=O)CC(=O)Nc1cc(OC(C)C)c(Cl)cc1Cl", "Potency": "inactive"}
{"smiles": "Cc1ccc(-n2nnnc2SCC(=O)N2c3ccccc3NC(=O)C2(C)C)cc1", "Potency": "inconclusive: 29.1 µM [inhibitor, single point]"}
{"smiles": "Cc1cc(C(=O)Nc2ccc(N3CCCCC3)cc2)no1", "Potency": "inconclusive: 2.59 µM [activator, partial curve]"}
{"smiles": "CCOC(=O)/C(=N\\Nc1ccc(C(C)=O)cc1)c1csc(Nc2ccccc2)n1", "Potency": "inconclusive: 2.91 µM [inhibitor, full curve]"}
{"smiles": "COc1ccc(-c2c(-c3ccc(OCC(=O)NN)cc3O)n[nH]c2C(F)(F)F)cc1", "Potency": "inactive"}
{"smiles": "CCOc1ccc(S(=O)(=O)N2CN3CCN(C3)C2)cc1", "Potency": "inconclusive: 6.51 µM [activator, single point]"}
{"smiles": "Cc1nc2c(=O)n(C)c(=O)[nH]c2n1Cc1ccccc1", "activity change, negative = inhibition": "inconclusive: 2.99% [activator]"}
{"smiles": "Cc1csc(=O)n1CCC(=O)OCC(=O)Nc1ccc(S(N)(=O)=O)cc1", "Potency": "inconclusive: 6.51 µM [inhibitor, single point]"}
{"smiles": "CCCn1cc(NC(=O)c2cc(-c3ccccc3)on2)cn1", "Potency": "inconclusive: 18.4 µM [activator, partial curve]"}
{"smiles": "COc1cccc(/C=N/NC(=O)c2ccc(-c3ccccc3)cc2)c1O", "Potency": "inconclusive: 2.06 µM [inhibitor, full curve]"}
{"smiles": "Cc1cc(Cn2nnc(-c3ccc(Br)cc3)n2)cc(C)c1O", "Potency": "inconclusive: 22.4 µM [activator, single point]"}
{"smiles": "C[C@H](NC(=O)c1nc[nH]c1C(=O)N1CCN(c2ccccc2)CC1)C(=O)OCc1ccccc1", "Potency": "inactive"}
{"smiles": "CSc1nc2sc3c(c2c(=O)n1C)CCC(C)C3", "note": "(stereo not given)", "Potency": "inconclusive: 18.4 µM [activator, single point]"}
{"smiles": "COc1ccc(N(C)S(=O)(=O)c2cccc(C(=O)Nc3nnc(C)s3)c2)cc1", "Potency": "inconclusive: 25.9 µM [inhibitor, single point]"}
{"smiles": "COc1cc(OC)c(C(=O)Nc2ccc(C(=O)c3ccccc3)cc2)cc1OC", "Potency": "inconclusive: 18.3 µM [inhibitor, single point]"}
{"smiles": "Cc1ccc(C)c(N2CCN(C(=O)CCc3nc(-c4ccccc4)no3)CC2)c1", "Potency": "inactive"}
{"smiles": "C[N+]1(C)CCC(=C2c3ccccc3CC(=O)c3sccc32)CC1", "Potency": "inconclusive: 17.8 µM [inhibitor, single point]"}
{"smiles": "Cc1nn(-c2ccccc2)c(C)c1NC(=O)COC(=O)C1CC(=O)N(CCc2ccccc2)C1", "note": "(stereo not given)", "Potency": "inactive"}
{"smiles": "O=S(=O)(Nc1ccc2c(c1)OCO2)c1ccc(Br)s1", "Potency": "inactive"}
{"smiles": "Cc1ccc(-n2nc3c(=O)n(CC(=O)NCc4ccccc4)nc(C)c3c2C)cc1", "Potency": "inconclusive: 18.3 µM [inhibitor, single point]"}
{"smiles": "COc1cccc(NC(=O)c2cc3cccc(OC)c3o/c2=N\\O)c1", "Potency": "inconclusive: 1.16 µM [activator, full curve]"}
{"smiles": "CC(C)C1Oc2cc3oc(=O)ccc3cc2C1=O", "note": "(stereo not given)", "Potency": "inconclusive: 18.3 µM [activator, partial curve, poor fit]"}
{"smiles": "Cc1cc(C)nc(N/N=C/c2ccc(N3CCOCC3)cc2)n1", "Potency": "inactive"}
{"smiles": "Cn1c(SCC(=O)OC2CCCCC2)nnc1-c1ccc(S(=O)(=O)N2CCCC2)cc1", "Potency": "inconclusive: 6.51 µM [inhibitor, full curve, poor fit]"}
{"smiles": "COc1ccc(/C=N/n2c(C)nnc2C)c(OC)c1", "Potency": "inconclusive: 20.6 µM [activator, partial curve]"}
{"smiles": "CN(CCOc1ccccc1)c1ccc(S(=O)(=O)N2CCCCC2)cn1", "Potency": "inactive"}
{"smiles": "Cc1nc2cc(-c3cccc(Cl)c3)nn2c(N2CCN(C(=O)c3ccco3)CC2)c1C", "Potency": "inconclusive: 29.1 µM [activator, single point]"}
{"smiles": "CC1CCCCN1S(=O)(=O)c1ccc(C(=O)Nc2nnc(-c3ccccc3Cl)o2)cc1", "note": "(stereo not given)", "Potency": "inconclusive: 16.4 µM [inhibitor, partial curve]"}
{"smiles": "COc1ccc(C(=O)Nc2ccc(F)cc2F)cc1", "Potency": "inconclusive: 8.2 µM [activator, partial curve]"}
{"smiles": "O=c1oc(-c2ccccc2[N+](=O)[O-])nc2ccccc12", "Potency": "inconclusive: 0.092 µM [inhibitor, partial curve, poor fit]"}
{"smiles": "COc1cc(/C=C(\\C#N)C(=O)NC(C)C)ccc1OCc1ccc(C(=O)O)cc1", "Potency": "inconclusive: 32.6 µM [activator, partial curve, poor fit]"}
{"smiles": "CN(C)c1ccc(CN(C(=O)c2ccccc2Br)C2CCS(=O)(=O)C2)cc1", "note": "(stereo not given)", "Potency": "inconclusive: 20.6 µM [activator, partial curve, poor fit]"}
{"smiles": "CC(=O)c1ccc(NC(=O)CCc2nnc3ccc(N4CCC5(CC4)OCCO5)nn23)cc1", "Potency": "inconclusive: 20.6 µM [activator, partial curve]"}
{"smiles": "COc1ccc(S(=O)(=O)N(C)C)cc1NCC(=O)Nc1ccc(Br)c(C)c1", "Potency": "inconclusive: 29.1 µM [inhibitor, single point]"}
{"smiles": "CN1CCN(c2ccc(CNS(=O)(=O)Cc3cccc(C(F)(F)F)c3)cc2)CC1", "Potency": "inconclusive: 2.06 µM [inhibitor, full curve]"}
{"smiles": "COc1ccc(-c2nn(-c3ccccc3)cc2C(=O)NC(=S)N2CCOCC2)cc1OC", "Potency": "active: 20.6 µM"}
{"smiles": "O=C(c1cc2c(s1)CCCCC2)N1CCN(c2ncccn2)CC1", "Potency": "inactive"}
{"smiles": "CC(C)OC(=O)CC(=O)CSc1nc(-c2ccc(F)cc2)cc(-c2ccccc2)c1C#N", "Potency": "inconclusive: 23.1 µM [inhibitor, single point]"}
{"smiles": "Cc1cc(NC(=O)c2cc3n(n2)C(C(F)(F)F)CC(c2ccco2)N3)n(-c2ccccc2)n1", "note": "(stereo not given)", "Potency": "inconclusive: 14.6 µM [inhibitor, partial curve]"}
{"smiles": "CCOC(=O)c1ccc(NC(=O)Nc2ccc(OC)c(OC)c2)cc1", "Potency": "inconclusive: 23.1 µM [inhibitor, partial curve, poor fit]"}
{"smiles": "CCOC(=O)c1ccc(NCc2ccc3c(c2)OCO3)cc1", "Potency": "inconclusive: 23.1 µM [activator, partial curve, poor fit]"}
{"smiles": "COc1ccc(C(=O)/C=C/C(=O)N(Cc2ccccc2)C(C(=O)NC2CCCCC2)c2ccncc2)c(O)c1", "note": "(stereo not given)", "Potency": "inconclusive: 25.9 µM [inhibitor, single point]"}
{"smiles": "O=C(Nc1cccc(Oc2ccc3c(c2)C(=O)NC3=O)c1)c1cccs1", "Potency": "inconclusive: 20.6 µM [inhibitor, partial curve]"}
{"smiles": "O=C(CCl)N1CCN(S(=O)(=O)c2ccc3c(c2)CCC3)CC1", "Potency": "inconclusive: 29.1 µM [inhibitor, single point]"}
{"smiles": "Cc1ccc(C(=O)OCC(=O)NNC(=O)c2cccs2)c(O)c1", "Potency": "inactive"}
{"smiles": "CN(CC(=O)Nc1ccc(Cl)c(Cl)c1)C1CCCCC1", "Potency": "inactive"}
{"smiles": "CCCOc1ccc(-c2c(C(=O)N/N=C/c3ccccc3)nnn2-c2nonc2N)cc1", "Potency": "inconclusive: 29.1 µM [activator, single point]"}
{"smiles": "COC(=O)c1ccc(N2CCCCC2)c(NC(=O)c2ccco2)c1", "Potency": "active: 23.1 µM"}
{"smiles": "CC(C)(C)C(=O)Nc1cccc(-c2nc3ccccc3c(=O)o2)c1", "Potency": "inconclusive: 14.1 µM [activator, single point]"}
{"smiles": "Cc1ccc(C2CC(C(F)(F)F)n3ncc(C(=O)NCc4ccco4)c3N2)cc1", "note": "(stereo not given)", "Potency": "inactive"}
{"smiles": "CC(C)(C)c1ccc(C(=O)Nc2cccc3c(=O)[nH][nH]c(=O)c23)cc1", "Potency": "inconclusive: 1.3 µM [activator, full curve]"}
{"smiles": "CCCN1CCc2c(sc3nc(SC)n(-c4ccccc4)c(=O)c23)C1", "Potency": "inconclusive: 18.3 µM [inhibitor, partial curve]"}
{"smiles": "C=CCN1CCN(C(=O)c2ccc(-c3ccccc3)cc2)CC1", "Potency": "inactive"}
{"smiles": "CN1c2ccccc2C(=O)/C(=C\\Nc2ccc(F)cc2)S1(=O)=O", "Potency": "inactive"}
{"smiles": "O=C(NCCO)C(=O)Nc1cc2c3c(c1)CC(=O)N3CCC2", "Potency": "inactive"}
{"smiles": "COc1ccc(S(N)(=O)=O)cc1C(=O)NNC(=O)C1COc2ccccc2O1", "note": "(stereo not given)", "Potency": "inactive"}
{"smiles": "Cc1cccc(C(=O)NC(=S)Nc2cccc3nc(C)ccc23)c1", "Potency": "inactive"}
{"smiles": "CCN(C(=O)CSc1nnc(C(C)N(C)C)n1-c1ccc(F)cc1)C1CCS(=O)(=O)C1", "note": "(stereo not given)", "Potency": "inactive"}
{"smiles": "O=C(CNc1ccccc1)N/N=C/c1ccc([N+](=O)[O-])cc1", "Potency": "inactive"}
{"smiles": "Cc1cc(C)cc(NC(=O)CSc2nnc(CNC(=O)c3ccco3)n2C)c1", "Potency": "inactive"}
{"smiles": "N#C/C(=C\\c1ccccc1)C(=O)NCCN1CCOCC1", "Potency": "inactive"}
{"smiles": "COc1ccc(N(C)C(=O)c2ccc3snnc3c2)cc1", "Potency": "inconclusive: 20.6 µM [activator, single point]"}
{"smiles": "COc1ccc(OC)c(S(=O)(=O)N2CCC(C(=O)N3CCc4ccccc4C3)CC2)c1", "Potency": "inconclusive: 23.1 µM [inhibitor, partial curve, poor fit]"}
{"smiles": "CCCS(=O)(=O)c1cscc1NC(=O)c1c(-c2c(F)cccc2Cl)noc1C", "Potency": "inactive"}
{"smiles": "Cc1ccc(NC(=O)C2CCCO2)cc1[N+](=O)[O-]", "note": "(stereo not given)", "Potency": "inconclusive: 18.4 µM [activator, single point]"}
{"smiles": "c1ccc2c(c1)[nH]c1c(N3CCN(C4CCCCC4)CC3)ncnc12", "Potency": "inactive"}
{"smiles": "COc1ccc(-c2cc3ncccc3cn2)cc1", "Potency": "inconclusive: 4.61 µM [activator, full curve]"}
